We go through 42 sequences from publication PMC7819943, “Rice protein-binding microarrays: a tool to detect cis-acting elements near promoter regions in rice”.

Protein sequences, listed by entry. Tags and fused reporters are not part of them.
UniProt Q0JBA9, entry or part of it: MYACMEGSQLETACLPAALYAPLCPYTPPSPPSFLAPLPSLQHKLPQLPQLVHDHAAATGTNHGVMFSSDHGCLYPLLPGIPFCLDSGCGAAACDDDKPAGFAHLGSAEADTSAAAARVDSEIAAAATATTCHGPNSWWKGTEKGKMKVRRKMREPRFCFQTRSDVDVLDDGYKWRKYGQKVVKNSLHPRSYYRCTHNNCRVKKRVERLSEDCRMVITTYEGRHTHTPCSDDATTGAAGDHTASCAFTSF

Some of the results follow.

The assay addresses OsWRKY34 (Oryza sativa, UniProt Q0JBA9 1-250). In words: protein-binding microarray (RPBM); PBS, 2% BSA, 51.3 ng/ul salmon testes DNA, 50 uM zinc acetate, 200 nM TF, 25 C, 1 h; high values mean tight binding. The following applies: protein: recombinant; tags: N-terminal polyhistidine and DsRed monomer fusion (pET32a); label: CyDye5-dUTP incorporated in the synthesized complementary strand; 3' TTTTT single-stranded linker to array surface; dsDNA, one strand shown. The procedure, abridged: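 The binding signal is fluorescence intensity per feature, in arbitrary units, read on an Axon 4000B scanner. Polyhistidine- and DsRed-tagged transcription factors (N-terminal fusions) from E. coli BL21-CodonPlus were purified on Ni–NTA and applied at 200 nM for 1 h at 25 °C to a double-stranded, BSA-blocked custom Agilent array in buffer with 50 µM zinc acetate.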
Turning to “CATGTTAGTGTTGCATAGTTTAGTTATCCGTACAGTACTCCGGAGTCACCTAGTGCAG”, the binding signal was 9600 fluorescence intensity (a.u.).

On to “AGAGGGATAGTACGGGTGTGTGTGATTACAAGTAGCTTTTCGGAGTCACCTAGTGCAG”, for which the binding signal is 8670 fluorescence intensity (a.u.).

Regarding “GTCTCCGCGCGCGCTCTCTCTTTCGTTCACTCTCGCTTTCCGGAGTCACCTAGTGCAG”, the binding signal is 14500 fluorescence intensity (a.u.).

As to “TGTGTAGTTTGTGAGGGCCAGAAGTTTCTTGGCAAGCTGTCGGAGTCACCTAGTGCAG”, the binding signal is 8130 fluorescence intensity (a.u.).

Consider “ACGTTTGACCCTTTGTTTTATTCAATTTTTTTGTGTAAATCGGAGTCACCTAGTGCAG”, for which the binding signal is 8290 fluorescence intensity (a.u.).

With “TGTTGACTAATGCATGTTTCTCTCATCGATCTTATAGGTTCGGAGTCACCTAGTGCAG”, the binding signal is 9450 fluorescence intensity (a.u.).

Regarding “TACTGATGAGCCACTGACGGGTGGGGCCAGTTGACTGACACGGAGTCACCTAGTGCAG”, the binding signal is 8850 fluorescence intensity (a.u.).

Turning to “ATTAGTGGCCTGATCTGATTCAAATCTCACACCCGCAAAACGGAGTCACCTAGTGCAG”, the binding signal was 9200 fluorescence intensity (a.u.).

Turning to “TCGTCATATCAGGAGCTGCATGCAATGTCGATTTGTTTCCCGGAGTCACCTAGTGCAG”, the binding signal is 8530 fluorescence intensity (a.u.).

Take “GCTGAGTTTGGCCTGGCTAGATAGATACATATGCAACCGTCGGAGTCACCTAGTGCAG”: the binding signal is 8210 fluorescence intensity (a.u.).

“CTTCATCATTTGGTGTGTGCGGGATGGCGGTTCTCATTTTCGGAGTCACCTAGTGCAG”: the binding signal is 8120 fluorescence intensity (a.u.).

As to “CTATTGCAGTCTACCTCCTATCGTTTGTCTGCTTTCTTTTCGGAGTCACCTAGTGCAG”, the binding signal is 11500 fluorescence intensity (a.u.).

Turning to “GTTGCAGTAGCTTGTCGACTTTGTACCATGTTGTTTGAGACGGAGTCACCTAGTGCAG”, the binding signal was 10100 fluorescence intensity (a.u.).

Take “CCATCTGAATTCACATTTAAGTTAATCGGCCACTCTGTTTCGGAGTCACCTAGTGCAG”: the binding signal is 8340 fluorescence intensity (a.u.).

“AAGCCCGTTTCTTATTTGTACCTACCAAACCGTCGGAAACCGGAGTCACCTAGTGCAG”: the binding signal was 8600 fluorescence intensity (a.u.).

On to “TCGCTCTCGCGTCGCGTCCAGGTGCAGCCGTCGTTCTGTTCGGAGTCACCTAGTGCAG”, for which the binding signal is 9960 fluorescence intensity (a.u.).

“GGTCCCATCTTTGACACGGTCAATGCCGTCTCTGCCCCACCGGAGTCACCTAGTGCAG”: the binding signal was 8550 fluorescence intensity (a.u.).

Regarding “GTGGTGGTGGCGGTGGTGGTCCGGCGATGTTGCTGGTGGCCGGAGTCACCTAGTGCAG”, the binding signal is 11500 fluorescence intensity (a.u.).

Regarding “TTGTTTGTTATCTTCTCCTTCCTTATTATAAGTTTATCATCGGAGTCACCTAGTGCAG”, the binding signal is 10500 fluorescence intensity (a.u.).

Take “AATATGCCGTTTCTTTTTTTTTCTTTGAATCTGCCAAACGCGGAGTCACCTAGTGCAG”: the binding signal was 8580 fluorescence intensity (a.u.).

In the case of “CCGCTTGCCAACTTAACCGCACTCGCCACTTCTCGGTTGTCGGAGTCACCTAGTGCAG”, the binding signal was 8200 fluorescence intensity (a.u.).

Regarding “GCTTCCTAAACCACCCAGAGACATAGTTTCCATCGGTTTTCGGAGTCACCTAGTGCAG”, the binding signal is 8800 fluorescence intensity (a.u.).

As to “TCCTTTTGCTTTCTTTCTTTTGTGTTTTTCAAATTTCTACCGGAGTCACCTAGTGCAG”, the binding signal is 9810 fluorescence intensity (a.u.).

Consider “ATATTCCCTTACAGCCCTACACACGTTTTGGAGTTTTAACCGGAGTCACCTAGTGCAG”, for which the binding signal was 10000 fluorescence intensity (a.u.).

For the sequence “GAACAAAACCCATCTCATCTCCTTGACTCCTTCCCTGTACCGGAGTCACCTAGTGCAG”, the binding signal is 8630 fluorescence intensity (a.u.).

Turning to “CCTAATTATCTCTCTCTCCCTACCACGTCGTCTTCTCTTCCGGAGTCACCTAGTGCAG”, the binding signal is 9340 fluorescence intensity (a.u.).

With “CACCGAGCCGCCTCCTTCTTTCACCACGCGGTGGATCACCCGGAGTCACCTAGTGCAG”, the binding signal was 8140 fluorescence intensity (a.u.).

As for “GTCCAGAGTGTTCCCGCACCTCTGTATATTTTTCTCCCTCCGGAGTCACCTAGTGCAG”, the binding signal was 8590 fluorescence intensity (a.u.).

On to “TTCCATTCCTTCCGTGCTCGATAATTACTGTTTTAATCACCGGAGTCACCTAGTGCAG”, for which the binding signal is 10800 fluorescence intensity (a.u.).

For “ATTTAATTTCTCCTTGGTCTTTGTGACAATAGTAATATGTCGGAGTCACCTAGTGCAG”, the binding signal was 9200 fluorescence intensity (a.u.).

Turning to “CTTTATTTTCTGGGGTTAAATTTCTTGTCGGTTCCACTTACGGAGTCACCTAGTGCAG”, the binding signal is 15800 fluorescence intensity (a.u.).

For the sequence “TTGTCTTCTTGTTTGACTGACGTATGAGCCCACATATTTTCGGAGTCACCTAGTGCAG”, the binding signal was 9460 fluorescence intensity (a.u.).

In the case of “CGCCACCTTCTCTCTTCTCTTCTCCTCTCCTCTCGTCTCCCGGAGTCACCTAGTGCAG”, the binding signal is 8140 fluorescence intensity (a.u.).

Consider “ACGTAGACGCGTGGTGTGGTTGTATATTTTCTTTTTCCTGCGGAGTCACCTAGTGCAG”, for which the binding signal is 10800 fluorescence intensity (a.u.).

Regarding “ACGGTCCTCACGGCTTTTTCACATCTCACATCTCGCACTCCGGAGTCACCTAGTGCAG”, the binding signal is 10900 fluorescence intensity (a.u.).

On to “TGCAGTGGCTCCGTCGCTCAGTGAACATCCAGTCCCATTTCGGAGTCACCTAGTGCAG”, for which the binding signal is 9900 fluorescence intensity (a.u.).

As for “CTTGCACAAATTGGTTTGCCAACTATCACCACGAGGCTCTCGGAGTCACCTAGTGCAG”, the binding signal is 8650 fluorescence intensity (a.u.).

As for “AAAAGACAAACCCTAATTTCCATGTCCAACGTTTGACCGTCGGAGTCACCTAGTGCAG”, the binding signal is 9670 fluorescence intensity (a.u.).

“TTTCGTTAGCTCACCATTGGAATCCAGTTTCCATTCACTCCGGAGTCACCTAGTGCAG”: the binding signal was 10600 fluorescence intensity (a.u.).

On to “GTCATCTACCAGCATACAGTGCTTGGCCATCATTCATGCACGGAGTCACCTAGTGCAG”, for which the binding signal was 8430 fluorescence intensity (a.u.).

“CAATCGTCCGTCAGCAAGCACACACCCCGACTGTGTCGATCGGAGTCACCTAGTGCAG”: the binding signal is 10300 fluorescence intensity (a.u.).

For “TTGTAATAGGGGTATTTTGGTCACTTCGTGCTAGCAATTTCGGAGTCACCTAGTGCAG”, the binding signal was 11400 fluorescence intensity (a.u.).
